# Reference: the supplement of paper PMC8728848
# This is one part of the list.
# B1: Epf (Streptococcus pyogenes) (protein)
# chain: GDHGPEFNGVMVVKAAEAEELPDDLMNFKGTWEVSADGSSGRFFSKGATDSYVFHLIPAKDVKKPGWREHNEVKDSYIKIDKQSIAARYKTSTTAPYSVAFKVNTKSLIKDHDYKITFEQGQIASGITVDYRIGSAFNKTTDDSFKISDESKYASNVKIEGEEQGFKQREQGDKTISFRTLKEGPMSLVLLSKVEKKPQGDLDVEFKNLKIIDVTNPSQLDKGVAYVGNKNVQLTLKSDDGRTNFEGDEISLFNSRGELLQTVTVTKDQQNPISITLSEDQAKSLKNKEKLKVSIKQKQSKKTSKDFFFEVGIDPKVEAKQKEKLLELDKVKKQIEDSINGDAWLPEKPVDLQGDHGLSAWSHPQFEK
# Tests used:
# Assay in all cases: glycan array binding signal (z-score within array); higher = stronger binding
# Conditions in all cases: glycan notation: IUPAC condensed, linker removed
# GlcA(b1-3)Gal = target: GlcA(b1-3)Gal
# Method in brief: (§1)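 Glycan array binding is given as a within-array Z-score, which can be read as non-binding when negative. The arrays, 3228 of them, came from the Consortium for Functional Glycomics database and were retained only where the protein sequence was available. Z-scores were averaged across arrays of the same protein sequence at different concentrations or buffers and across linkers.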
# GlcA(b1-3)GlcNAc = target: GlcA(b1-3)GlcNAc
# Method in brief: as §1
# GlcA(b1-6)Gal = target: GlcA(b1-6)Gal
# Method in brief: as §1
# [1] = target: GlcA3S(b1-3)Gal(b1-4)GlcNAc(b1-2)Man
# Method in brief: as §1
# [2] = target: GlcA3S(b1-3)Gal(b1-4)GlcNAc(b1-3)Gal(b1-4)Glc
# Method in brief: as §1
# [3] = target: GlcNAc(a1-3)Gal(b1-4)GlcNAc
# Method in brief: as §1
# [4] = target: GlcNAc(a1-4)Gal(b1-3)GlcNAc
# Method in brief: as §1
# [5] = target: GlcNAc(a1-4)Gal(b1-4)GalNAc
# Method in brief: as §1
# [6] = target: GlcNAc(a1-4)Gal(b1-4)GlcNAc
# Method in brief: as §1
# [7] = target: GlcNAc(a1-4)Gal(b1-4)GlcNAc(b1-3)Gal(b1-4)Glc
# Method in brief: as §1
# [8] = target: GlcNAc(a1-4)Gal(b1-4)GlcNAc(b1-3)Gal(b1-4)GlcNAc
# Method in brief: as §1
# [9] = target: GlcNAc(a1-4)Gal(b1-4)GlcNAc(b1-3)Gal(b1-4)GlcNAc(b1-3)Gal(b1-4)GlcNAc
# Method in brief: as §1
# [10] = target: GlcNAc(a1-4)Gal(b1-4)GlcNAc(b1-3)Gal(b1-4)[Fuc(a1-3)]GlcNAc(b1-3)Gal(b1-4)[Fuc(a1-3)]GlcNAc
# Method in brief: as §1
# [11] = target: GlcNAc(a1-6)Gal(b1-4)GlcNAc
# Method in brief: as §1
# [12] = target: GlcNAc(b1-2)Gal(b1-3)GalNAc
# Method in brief: as §1
# [13] = target: GlcNAc(b1-2)Man(a1-3)[GlcNAc(b1-2)Man(a1-6)]Man(b1-4)GlcNAc(b1-4)GlcNAc
# Method in brief: as §1
# [14] = target: GlcNAc(b1-2)Man(a1-3)[GlcNAc(b1-2)Man(a1-6)]Man(b1-4)GlcNAc(b1-4)[Fuc(a1-6)]GlcNAc
# Method in brief: as §1
# [15] = target: GlcNAc(b1-2)Man(a1-3)[GlcNAc(b1-4)][GlcNAc(b1-2)Man(a1-6)]Man(b1-4)GlcNAc(b1-4)GlcNAc
# Method in brief: as §1
# [16] = target: GlcNAc(b1-2)Man(a1-3)[GlcNAc(b1-4)][GlcNAc(b1-2)Man(a1-6)]Man(b1-4)GlcNAc(b1-4)[Fuc(a1-6)]GlcNAc
# Method in brief: as §1
# [17] = target: GlcNAc(b1-2)[GlcNAc(b1-4)]Man(a1-3)[GlcNAc(b1-2)Man(a1-6)]Man(b1-4)GlcNAc(b1-4)GlcNAc
# Method in brief: as §1
# [18] = target: GlcNAc(b1-2)[GlcNAc(b1-4)]Man(a1-3)[GlcNAc(b1-4)][GlcNAc(b1-2)Man(a1-6)]Man(b1-4)GlcNAc(b1-4)GlcNAc
# Method in brief: as §1
# [19] = target: GlcNAc(b1-2)[GlcNAc(b1-4)]Man(a1-3)[GlcNAc(b1-4)][GlcNAc(b1-2)[GlcNAc(b1-6)]Man(a1-6)]Man(b1-4)GlcNAc(b1-4)GlcNAc
# Method in brief: as §1
# [20] = target: GlcNAc(b1-2)[GlcNAc(b1-4)]Man(a1-3)[GlcNAc(b1-4)][GlcNAc(b1-2)[GlcNAc(b1-6)]Man(a1-6)]Man(b1-4)GlcNAc(b1-4)[Fuc(a1-6)]GlcNAc
# Method in brief: as §1
# [21] = target: GlcNAc(b1-2)[GlcNAc(b1-6)]Man(a1-6)[GlcNAc(b1-2)Man(a1-3)]Man(b1-4)GlcNAc(b1-4)GlcNAc
# Method in brief: as §1
# [22] = target: GlcNAc(b1-2)[GlcNAc(b1-6)]Man(a1-6)[GlcNAc(b1-2)Man(a1-3)]Man(b1-4)GlcNAc(b1-4)[Fuc(a1-6)]GlcNAc
# Method in brief: as §1
# [23] = target: GlcNAc(b1-2)[GlcNAc(b1-6)]Man(a1-6)[GlcNAc(b1-4)][GlcNAc(b1-2)Man(a1-3)]Man(b1-4)GlcNAc(b1-4)GlcNAc
# Method in brief: as §1
# GlcNAc(b1-3)Fuc = target: GlcNAc(b1-3)Fuc
# Method in brief: as §1
# GlcNAc(b1-3)Gal = target: GlcNAc(b1-3)Gal
# Method in brief: as §1
# [24] = target: GlcNAc(b1-3)Gal(b1-3)GalNAc
# Method in brief: as §1
# GlcNAc(b1-3)Gal(b1-4)Glc = target: GlcNAc(b1-3)Gal(b1-4)Glc
# Method in brief: as §1
# [25] = target: GlcNAc(b1-3)Gal(b1-4)GlcNAc
# Method in brief: as §1
# [26] = target: GlcNAc(b1-3)Gal(b1-4)GlcNAc(b1-2)Man(a1-3)[GlcNAc(b1-3)Gal(b1-4)GlcNAc(b1-2)Man(a1-6)]Man(b1-4)GlcNAc(b1-4)GlcNAc
# Method in brief: as §1
# [27] = target: GlcNAc(b1-3)Gal(b1-4)GlcNAc(b1-2)Man(a1-3)[GlcNAc(b1-3)Gal(b1-4)GlcNAc(b1-2)Man(a1-6)]Man(b1-4)GlcNAc(b1-4)[Fuc(a1-6)]GlcNAc
# Method in brief: as §1
# [28] = target: GlcNAc(b1-3)Gal(b1-4)GlcNAc(b1-2)[GlcNAc(b1-3)Gal(b1-4)GlcNAc(b1-6)]Man(a1-6)[GlcNAc(b1-3)Gal(b1-4)GlcNAc(b1-2)Man(a1-3)]Man(b1-4)GlcNAc(b1-4)GlcNAc
# Method in brief: as §1
# [29] = target: GlcNAc(b1-3)Gal(b1-4)GlcNAc(b1-3)Gal(b1-4)GlcNAc
# Method in brief: as §1
# [30] = target: GlcNAc(b1-3)Gal(b1-4)GlcNAc(b1-3)Gal(b1-4)GlcNAc(b1-2)Man(a1-3)[GlcNAc(b1-3)Gal(b1-4)GlcNAc(b1-3)Gal(b1-4)GlcNAc(b1-2)Man(a1-6)]Man(b1-4)GlcNAc(b1-4)GlcNAc
# Method in brief: as §1
# [31] = target: GlcNAc(b1-3)Gal(b1-4)GlcNAc(b1-3)Gal(b1-4)GlcNAc(b1-2)Man(a1-3)[GlcNAc(b1-3)Gal(b1-4)GlcNAc(b1-3)Gal(b1-4)GlcNAc(b1-2)Man(a1-6)]Man(b1-4)GlcNAc(b1-4)[Fuc(a1-6)]GlcNAc
# Method in brief: as §1
binder,measurement,setting,value
B1,glycan array binding signal (z-score),GlcA(b1-3)Gal,-0.114
same,glycan array binding signal (z-score),GlcA(b1-3)GlcNAc,-0.509
same,glycan array binding signal (z-score),GlcA(b1-6)Gal,0.072
same,glycan array binding signal (z-score),[1],-0.251
same,glycan array binding signal (z-score),[2],-1.41
same,glycan array binding signal (z-score),[3],0.808
same,glycan array binding signal (z-score),[4],-0.513
same,glycan array binding signal (z-score),[5],0.374
same,glycan array binding signal (z-score),[6],0.691
same,glycan array binding signal (z-score),[7],-0.09
same,glycan array binding signal (z-score),[8],-0.942
same,glycan array binding signal (z-score),[9],-1.16
same,glycan array binding signal (z-score),[10],0.834
same,glycan array binding signal (z-score),[11],0.095
same,glycan array binding signal (z-score),[12],-0.413
same,glycan array binding signal (z-score),[13],0.436
same,glycan array binding signal (z-score),[14],-0.521
same,glycan array binding signal (z-score),[15],0.722
same,glycan array binding signal (z-score),[16],0.795
same,glycan array binding signal (z-score),[17],-0.419
same,glycan array binding signal (z-score),[18],0.679
same,glycan array binding signal (z-score),[19],-1.04
same,glycan array binding signal (z-score),[20],0.798
same,glycan array binding signal (z-score),[21],-0.28
same,glycan array binding signal (z-score),[22],0.331
same,glycan array binding signal (z-score),[23],1.68
same,glycan array binding signal (z-score),GlcNAc(b1-3)Fuc,0.217
same,glycan array binding signal (z-score),GlcNAc(b1-3)Gal,0.072
same,glycan array binding signal (z-score),[24],-0.285
same,glycan array binding signal (z-score),GlcNAc(b1-3)Gal(b1-4)Glc,0.469
same,glycan array binding signal (z-score),[25],0.342
same,glycan array binding signal (z-score),[26],-0.562
same,glycan array binding signal (z-score),[27],-0.245
same,glycan array binding signal (z-score),[28],-0.254
same,glycan array binding signal (z-score),[29],0.659
same,glycan array binding signal (z-score),[30],1.22
same,glycan array binding signal (z-score),[31],0.723

# An excerpt of the results above, as a working copy:
binder,measurement,setting,value
B1,glycan array binding signal (z-score),[26],-0.562
same,glycan array binding signal (z-score),[27],-0.245
same,glycan array binding signal (z-score),[28],-0.254
